Results published in publication PMC3989317.
These are yes or no findings as the source states them, for the method shown. In cells and extracts the contact can be indirect. Some entries that bind do so weakly or less than the wild type.

The chains behind the UniProt entries cited, without tags or fusion partners. Where a name states a change or a piece, a line headed by the entry shows the natural chain unless it says otherwise. A line that says so, or that is headed by a name, gives the form on record, which may keep a tag or linker.
UniProt Q8K4Q0: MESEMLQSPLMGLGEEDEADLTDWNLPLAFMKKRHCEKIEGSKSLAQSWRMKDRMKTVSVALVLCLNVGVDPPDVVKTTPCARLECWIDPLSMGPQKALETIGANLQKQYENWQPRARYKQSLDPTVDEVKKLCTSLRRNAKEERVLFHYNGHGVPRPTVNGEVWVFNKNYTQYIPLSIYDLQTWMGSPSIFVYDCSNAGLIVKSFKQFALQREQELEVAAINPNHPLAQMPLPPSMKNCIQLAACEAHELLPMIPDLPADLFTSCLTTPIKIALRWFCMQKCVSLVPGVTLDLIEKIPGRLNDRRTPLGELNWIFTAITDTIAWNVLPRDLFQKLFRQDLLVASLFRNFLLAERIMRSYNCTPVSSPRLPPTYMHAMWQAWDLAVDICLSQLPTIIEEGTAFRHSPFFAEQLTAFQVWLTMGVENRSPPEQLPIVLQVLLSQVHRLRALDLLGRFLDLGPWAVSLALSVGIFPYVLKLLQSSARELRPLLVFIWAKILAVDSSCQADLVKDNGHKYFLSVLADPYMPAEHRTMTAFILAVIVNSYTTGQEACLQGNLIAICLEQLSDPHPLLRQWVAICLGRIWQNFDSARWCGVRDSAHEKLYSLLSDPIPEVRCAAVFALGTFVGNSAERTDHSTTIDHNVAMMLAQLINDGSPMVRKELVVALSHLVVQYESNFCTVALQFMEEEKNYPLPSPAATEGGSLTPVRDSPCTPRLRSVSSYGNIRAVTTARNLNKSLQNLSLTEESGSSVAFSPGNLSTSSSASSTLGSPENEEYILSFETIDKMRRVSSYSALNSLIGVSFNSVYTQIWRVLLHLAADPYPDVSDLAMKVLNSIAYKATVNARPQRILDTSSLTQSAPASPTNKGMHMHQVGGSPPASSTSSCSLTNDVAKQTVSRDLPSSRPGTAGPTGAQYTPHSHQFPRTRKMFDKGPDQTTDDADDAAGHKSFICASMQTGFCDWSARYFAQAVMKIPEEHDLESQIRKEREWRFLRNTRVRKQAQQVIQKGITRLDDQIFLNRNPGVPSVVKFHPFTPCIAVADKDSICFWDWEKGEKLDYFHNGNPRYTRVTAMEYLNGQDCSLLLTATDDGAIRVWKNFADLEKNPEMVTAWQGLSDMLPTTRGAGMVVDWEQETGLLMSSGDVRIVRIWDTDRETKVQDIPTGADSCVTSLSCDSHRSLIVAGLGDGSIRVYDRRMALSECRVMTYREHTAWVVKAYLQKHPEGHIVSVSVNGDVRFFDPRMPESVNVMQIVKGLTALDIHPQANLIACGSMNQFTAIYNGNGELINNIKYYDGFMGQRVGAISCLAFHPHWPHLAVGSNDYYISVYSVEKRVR
FLAG-tagged wild-type RagB (Q5VZM2-2, form named): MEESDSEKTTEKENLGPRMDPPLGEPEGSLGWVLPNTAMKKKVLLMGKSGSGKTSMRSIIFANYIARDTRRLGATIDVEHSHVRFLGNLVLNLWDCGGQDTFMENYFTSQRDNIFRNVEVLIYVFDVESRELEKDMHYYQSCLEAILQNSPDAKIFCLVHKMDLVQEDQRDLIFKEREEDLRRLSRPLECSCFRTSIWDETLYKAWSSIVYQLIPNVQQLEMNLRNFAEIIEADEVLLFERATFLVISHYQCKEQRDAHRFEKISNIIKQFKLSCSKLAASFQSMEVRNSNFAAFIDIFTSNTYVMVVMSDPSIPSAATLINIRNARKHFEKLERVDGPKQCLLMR

Key:
[1] = target: Raptor (mouse (endogenous in C2C12)) (UniProt Q8K4Q0); assay: co-IP; C2C12 cells transiently expressing FLAG-RagB, serum starved, with or without 50 µM UA and 10 mM leucine; in-cell cross-linking with 1 mg/ml DSP before lysis (0.3% CHAPS); Raptor immunoprecipitated, associated proteins detected by Western blot
[2] = target: FLAG-tagged wild-type RagB (UniProt Q5VZM2); assay: co-IP; C2C12 cells transiently expressing FLAG-RagB, serum starved, with or without leucine and 50 µM UA; in-cell cross-linking with DSP before lysis (0.3% CHAPS); FLAG-RagB immunoprecipitated with the FLAG antibody, mTOR and Raptor detected by Western blot

Row | binding [1] | binding [2] | Substance
1 | binds | – | FLAG-tagged wild-type RagB (from UniProt Q5VZM2-2 1-346)
2 | – | binds | Raptor (from UniProt Q8K4Q0 1-1335)
